Experimental data from PMC10571540.
These are yes or no findings as the source states them, for the method shown. In cells and extracts the contact can be indirect. Some binding calls cover weakened binding; strength is not graded here. For part of these data: Sequences can lack the tags named with a protein.

Protein sequences, listed by entry. Tags and fused reporters are not part of them. Residues count along the entry.
UniProt P02647, residues 19-267: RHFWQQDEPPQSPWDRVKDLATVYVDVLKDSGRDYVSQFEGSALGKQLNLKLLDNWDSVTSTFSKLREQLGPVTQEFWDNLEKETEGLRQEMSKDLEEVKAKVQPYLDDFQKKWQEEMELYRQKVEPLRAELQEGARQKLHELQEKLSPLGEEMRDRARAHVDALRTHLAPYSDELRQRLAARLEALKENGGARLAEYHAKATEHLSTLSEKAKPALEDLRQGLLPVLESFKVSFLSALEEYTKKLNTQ

Columns and labels:
[1] = target: T1, SIDT2 fused to the green fluorescent protein (SIDT2-GFP) (human) (UniProt Q8NBJ9); test: co-IP; HEK293 cell extracts of co-transfected cells; SIDT2-GFP immunoprecipitated with an anti-GFP antibody; SIDT2 and ApoA1 detected by Western blot
T1 sequence: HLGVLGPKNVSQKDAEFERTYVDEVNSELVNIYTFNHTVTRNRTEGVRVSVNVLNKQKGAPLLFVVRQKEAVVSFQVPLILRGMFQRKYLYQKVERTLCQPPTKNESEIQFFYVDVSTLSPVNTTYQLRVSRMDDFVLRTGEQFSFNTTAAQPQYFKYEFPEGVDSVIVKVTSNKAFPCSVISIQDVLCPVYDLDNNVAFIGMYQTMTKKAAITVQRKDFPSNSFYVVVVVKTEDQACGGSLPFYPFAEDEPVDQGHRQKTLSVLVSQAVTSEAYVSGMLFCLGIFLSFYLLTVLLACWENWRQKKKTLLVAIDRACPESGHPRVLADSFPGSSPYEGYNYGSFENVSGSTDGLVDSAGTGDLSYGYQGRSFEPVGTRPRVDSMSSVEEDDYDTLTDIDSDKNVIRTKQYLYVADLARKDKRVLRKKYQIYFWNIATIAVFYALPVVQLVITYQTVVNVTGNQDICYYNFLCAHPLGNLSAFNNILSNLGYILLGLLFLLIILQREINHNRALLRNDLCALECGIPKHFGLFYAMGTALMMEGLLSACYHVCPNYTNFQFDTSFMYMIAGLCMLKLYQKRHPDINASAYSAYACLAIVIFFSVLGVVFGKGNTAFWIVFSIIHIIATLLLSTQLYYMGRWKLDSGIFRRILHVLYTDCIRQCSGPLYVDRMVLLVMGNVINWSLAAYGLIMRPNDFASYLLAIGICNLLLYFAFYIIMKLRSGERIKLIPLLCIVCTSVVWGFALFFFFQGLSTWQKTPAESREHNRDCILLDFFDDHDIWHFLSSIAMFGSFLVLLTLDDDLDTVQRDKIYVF

[2] = target: T1, SIDT2 fused to the green fluorescent protein (SIDT2-GFP) (human); test: FRET or BRET; acceptor photobleaching of OFPSpark by confocal microscopy in HEK293 cells co-expressing the GFP donor and the OFPSpark acceptor
[3] = target: T2, SIDT2 (endogenous, HepG2 cells) (human (endogenous in HepG2)) (UniProt Q8NBJ9); test: co-IP; HepG2 cells under control conditions, with scrambled siRNA or with siSIDT2; ApoA1 co-immunoprecipitated with SIDT2, Western blot
T2 sequence: T1 sequence

ApoA1 (expressed in HEK293 cells for co-immunoprecipitation) (from UniProt P02647 19-267)
binding [1]: binds

ApoA1 fused to the red fluorescent protein OFPSpark (ApoA1-OFPSpark) (from UniProt P02647 19-267)
binding [2]: binds

ApoA1 (endogenous, HepG2 cells) (from UniProt P02647 19-267)
binding [3]: binds
